Laboratory results as given in PubChem BioAssay AID504834 (National Center for Advancing Translational Sciences (NCATS), 2011).
Out of some 320,000 compounds screened, about 22,000 (6.9%) were called active. Inconclusive results, whose numbers are uncertain, are shown with a selection of clear calls. Calls follow the shape of the dose curve; as a rule, active = well fitted inhibition curve with a large enough effect; inconclusive = small, poorly fitted or top-dose-only effect, or another doubt; inactive = no such curve, though single readings can be large or run the other way. Potencies of inconclusive entries are doubtful fits and often do not repeat.

Experiment: Primary qHTS for delayed death inhibitors of the malarial parasite plastid, 96 hour incubation
Conditions: P. falciparum luciferase reporter growth; series mostly up to 28.7 µM
How it was run: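 Two parasite generations (96 h, 37 C, 5% CO2) of compound exposure in infected erythrocytes (0.05% parasitemia, 2% hematocrit). Luciferase-reporter P. falciparum; decreased luminescence indicates inhibited growth, aimed at apicoplast-acting delayed death.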
Potency is read from the fitted curve at half-maximal effect.

Row | Compound | Potency
1 | CC(C(=O)N1CCc2ccccc21)N(C)CC(=O)Nc1ccccc1Cl (configuration not stated) | active: 16.5 µM
2 | CCOc1cc(-c2noc(CCCC(N)=O)n2)cc(Br)c1OC | inconclusive: 18.5 µM [inhibitor, single point]
3 | O=C(Cn1c(=O)oc2cc(S(=O)(=O)N3CCCC3)ccc21)N1CCN(c2ccccc2)CC1 | inconclusive: 8.28 µM [inhibitor, partial curve, poor fit]
4 | COc1ccc(N2C(S)=C(C#N)C(=O)NC2c2ccco2)cc1 (configuration not stated) | inconclusive: 13.1 µM [inhibitor, single point]
5 | CCCn1c(SCC(=O)NCc2ccco2)nc2c1c(=O)n(C)c(=O)n2C | inconclusive: 0.928 µM [inhibitor, full curve, poor fit]
6 | C=CCNc1nc(S(=O)Cc2ccc(C)cc2)nc2c1CCCC2 (configuration not stated) | inconclusive: 4.65 µM [inhibitor, partial curve, poor fit]
7 | CCCOC(=O)c1ccc(Oc2c(-c3ccc(O)cc3O)n[nH]c2C)cc1 | inconclusive: 0.208 µM [inhibitor, partial curve, poor fit]
8 | COC(=O)CSc1nc(N2CCOCC2)c2c(c1C#N)CCCC2 | inconclusive: 18.5 µM [inhibitor, single point]
9 | O=c1[nH]c(=S)[nH]c(O)c1N=Nc1ccc(S(=O)(=O)N2CCOCC2)cc1 | inconclusive: 11.7 µM [inhibitor, partial curve]
10 | O=C1OC(c2ccc(Br)cc2)=N/C1=C\N1CCCCC1 | inconclusive: 18.5 µM [inhibitor, single point]
11 | O=C(NCCc1ccccc1)C(=O)NCC1OCCN1S(=O)(=O)c1cc(F)ccc1F (configuration not stated) | inactive
12 | CCOC(=O)/C=C/C(=O)Nc1ccc(S(=O)(=O)N2CCCCCC2)cc1 | active: 11.7 µM
13 | O=C(Nc1nnc(C2CC2)s1)C1Cc2ccccc2CN1S(=O)(=O)c1ccccc1F (configuration not stated) | inconclusive: 1.17 µM [inhibitor, partial curve, poor fit]
14 | COCCNC(=S)N1CCN(c2cccc(C(F)(F)F)c2)CC1 | inconclusive: 18.5 µM [inhibitor, single point]
15 | CC1(C)Cc2cccc(OCC(=O)Nc3cccnc3Cl)c2O1 | inactive
16 | COc1ccccc1CNC(=O)c1ccc(CS(=O)(=O)c2ccccc2C)o1 | inconclusive: 6.57 µM [inhibitor, partial curve]
17 | CCC(C)[C@H]1CNCCN1CCc1cc(C(F)(F)F)cc(C(F)(F)F)c1 (some centres not stated) | inconclusive: 18.5 µM [inhibitor, single point]
18 | Cc1ccc(N2C(=O)N(CC(=O)Nc3ccc(C)cc3C)C(=O)C2C)cc1 (configuration not stated) | inactive
19 | COc1ccc2nnc(-c3ccc(C(F)(F)F)cc3)n2n1 | inconclusive: 10.4 µM [inhibitor, single point]
20 | COc1ccccc1NCC(=O)NNCC(=O)Nc1ccc(F)c(Cl)c1 | inactive
21 | CN(C)CCN(CC1CCCN(Cc2ccccc2F)C1)C(=O)Cc1ccc(F)c(F)c1 (configuration not stated) | inconclusive: 10.4 µM [inhibitor, single point]

Four records picked at random from those above, as already listed:
Row | Compound | Potency
7 | CCCOC(=O)c1ccc(Oc2c(-c3ccc(O)cc3O)n[nH]c2C)cc1 | inconclusive: 0.208 µM [inhibitor, partial curve, poor fit]
11 | O=C(NCCc1ccccc1)C(=O)NCC1OCCN1S(=O)(=O)c1cc(F)ccc1F (configuration not stated) | inactive
17 | CCC(C)[C@H]1CNCCN1CCc1cc(C(F)(F)F)cc(C(F)(F)F)c1 (some centres not stated) | inconclusive: 18.5 µM [inhibitor, single point]
10 | O=C1OC(c2ccc(Br)cc2)=N/C1=C\N1CCCCC1 | inconclusive: 18.5 µM [inhibitor, single point]

Next part.

Row | Compound | Potency
22 | COc1ccccc1NC(=O)N1CCN(C(=O)Nc2ccccc2OC)CC1 | inactive
23 | Cc1ccccc1OCC(=O)Nc1nnc(C2CCCCC2)s1 | inactive
24 | CN(C)c1ccc(CN2CCC(C(N)=O)CC2)cc1 | inconclusive: 4.65 µM [inhibitor, partial curve, poor fit]
25 | CCOP(=O)(OCC)c1nc(/C=C/c2ccccc2)oc1NCc1ccc(OC)cc1 | inconclusive: 4.65 µM [inhibitor, partial curve, poor fit]
26 | CCC(=O)N1CCc2cc(S(=O)(=O)NCCC(=O)NCc3ccccc3Cl)ccc21 | active: 8.28 µM
27 | Cc1ccccc1-c1noc(C(C)NC(=O)c2ccco2)n1 (configuration not stated) | inactive
28 | CC(=O)Nc1cccc(CCc2nc3ccccc3[nH]2)c1 | inconclusive: 14.7 µM [inhibitor, single point]
29 | Cn1c(=NC(=O)c2ccc3c(c2)OCCO3)sc2cc(S(C)(=O)=O)ccc21 | inconclusive: 10.4 µM [inhibitor, partial curve, poor fit]
30 | COc1cc(/C=C(/Sc2nnc(-c3ccc(F)cc3)o2)C(=O)O)ccc1OC(F)F | inactive
31 | Cc1c(C(=O)N2CCC3(CC2)CC(=O)c2ccccc2O3)cccc1[N+](=O)[O-] | inconclusive: 11.7 µM [inhibitor, single point]
32 | N/C(=N\OC(=O)CCCN1C(=O)c2ccccc2C1=O)c1ccc(Cl)cc1 | inconclusive: 4.15 µM [inhibitor, partial curve, poor fit]
33 | CC1CC(C)CN(CC(=O)Nc2cc(S(=O)(=O)N3CCOCC3)ccc2N2CCCC2)C1 (configuration not stated) | inconclusive: 8.28 µM [inhibitor, partial curve, poor fit]
34 | CCOC(=O)c1c(S(=O)(=O)Nc2ccc(C)c(F)c2)c(C)n(C)c1C | active: 9.28 µM
35 | CCOC(=O)c1cnc(-n2nc(C)cc2C)nc1NNc1nc(-c2ccccc2)cc(-c2ccccc2)n1 | inconclusive: 0.465 µM [inhibitor, partial curve, poor fit]
36 | COCCCn1c(SCC(=O)N2CCOCC2)nc2ccccc2c1=O | inconclusive: 4.65 µM [inhibitor, partial curve, poor fit]
37 | CC(C)NS(=O)(=O)c1ccc(OCC(=O)N2CCN(C)CC2)cc1 | inconclusive: 6.57 µM [inhibitor, single point]
38 | CCN(CC)C(=O)C1CCN(S(=O)(=O)c2ccc3c(c2)CCCN3C(=O)C2CCC2)CC1 | inactive
39 | CCc1cc(=O)oc2cc(OCc3ccc(C(=O)O)o3)ccc12 | inactive
40 | COc1ccc(S(=O)(=O)Nc2ccc(C)cc2)cc1OC | inconclusive: 1.47 µM [inhibitor, full curve, poor fit]
41 | CC(=O)O[C@]1(C(C)=O)CC[C@H]2[C@@H]3C=CC4=CC(=O)C=C[C@]4(C)[C@H]3CC[C@@]21C | active: 4.65 µM
42 | S=P(Nn1cnnc1)(c1ccc(Br)cc1)c1ccc(Br)cc1 | inconclusive: 6.57 µM [inhibitor, partial curve, poor fit]
